From patent US20230125550A1 (ARCELLX, published 2023)
Results are given in words; binding and its absence hold for the method and conditions named. Some binding calls cover weakened binding; strength is not graded here.

The chains behind the UniProt entries cited, without tags or fusion partners. Where a name states a change or a piece, a line headed by the entry shows the natural chain unless it says otherwise. Residues count along the entry.
UniProt Q07011: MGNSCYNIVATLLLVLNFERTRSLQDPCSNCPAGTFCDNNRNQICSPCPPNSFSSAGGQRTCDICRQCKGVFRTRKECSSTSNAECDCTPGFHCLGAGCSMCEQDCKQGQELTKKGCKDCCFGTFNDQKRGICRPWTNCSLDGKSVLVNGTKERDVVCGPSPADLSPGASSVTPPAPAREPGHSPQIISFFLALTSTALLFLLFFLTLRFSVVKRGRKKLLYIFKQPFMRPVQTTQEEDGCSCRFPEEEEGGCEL
CD137 as part of a cell membrane: residues 24-255 of Q07011
CD137: residues 24-186 of Q07011

Tests used:
CD137 = CD137 (UniProt Q07011); assay: ELISA, CD137 on plastic
[1] = biological target: CD137 as part of a cell membrane (UniProt Q07011); assay: FACS on cells

binding (CD137): binds
binding [1]: binds
B1: DDpp CD137-binder bb10 (designed binder)
chain: MGSWAEFKQRLAAIKTRLEALGGSEAELAAFLGEIWAFEMELAAYKGKGNPEVEALGREAAAIRMELQAYRHN
